Test results published in paper PMC7083851, “Extended pharmacodynamic responses observed upon PROTAC-mediated degradation of RIPK2” (Communications Biology, 2020).
Where “and” joins values, the source holds several entries; their conditions need not be identical. Identical values can stand only once. This continues a long series; more values of the same kind are listed elsewhere.

Experiment: Blood concentrations after subcutaneous dosing in rat PK/PD studies
Assay type: in vivo
Conditions: for blood concentration, individual rat: 14-day study; for PK, blood concentration, individual rat: 20 mg/kg SC single dose, 7-day study
Procedure: Female CD rats (7–8 weeks old on arrival, Charles River Ltd.) were placed into groups using a randomization schedule based on body weight prior to the study start. All animals were acclimatized for a minimum of one week prior to the experiment commencing. […] PROTAC 4 was dissolved in saline with the pH adjusted to 5.0 with sodium hydroxide (1 M).

Compound: CN[C@@H](C)C(=O)N[C@H](C(=O)N1CCC[C@H]1c1nc(C(=O)c2ccc(F)cc2)cs1)C1CCN(C(=O)c2cnc(N3CCN(CCOc4cc5ncnc(Nc6n[nH]c(C)c6C)c5cc4S(=O)(=O)C(C)(C)C)CC3)nc2)CC1 [PROTAC 4]
- blood concentration, individual rat (1 mg/kg SC, 0.25 h): 68.1 ng/mL and 18.6 ng/mL and 44.8 ng/mL and 40.1 ng/mL and 110 ng/mL
- blood concentration, individual rat (1 mg/kg SC, 0.5 h): 64.2 ng/mL and 59.6 ng/mL and 369 ng/mL and 74.5 ng/mL and 40.1 ng/mL
- blood concentration, individual rat (1 mg/kg SC, 1 h): 64.9 ng/mL and 15.9 ng/mL and 32.1 ng/mL and 123 ng/mL and 23 ng/mL
- blood concentration, individual rat (1 mg/kg SC, 2 h): 113 ng/mL and 55.4 ng/mL and 131 ng/mL and 67.9 ng/mL and 26.6 ng/mL
- blood concentration, individual rat (1 mg/kg SC, 4 h): 85.1 ng/mL and 39.6 ng/mL and 149 ng/mL and 59.9 ng/mL and 25.8 ng/mL
- blood concentration, individual rat (1 mg/kg SC, 8 h): 33.2 ng/mL and 5.06 ng/mL and 25.8 ng/mL and 11.3 ng/mL and 14.9 ng/mL
- blood concentration, individual rat (1 mg/kg SC, 24 h): 5.48 ng/mL and 5.45 ng/mL and 7.88 ng/mL and 6.3 ng/mL
- blood concentration, individual rat (1 mg/kg SC, 72 h): 1.45 ng/mL
- blood concentration, individual rat (5 mg/kg SC, 0.25 h): 173 ng/mL and 47.7 ng/mL
- blood concentration, individual rat (5 mg/kg SC, 0.5 h): 43 ng/mL and 52.6 ng/mL and 142 ng/mL and 113 ng/mL and 84.2 ng/mL
- blood concentration, individual rat (5 mg/kg SC, 1 h): 33 ng/mL and 208 ng/mL and 129 ng/mL and 125 ng/mL and 37.6 ng/mL
- blood concentration, individual rat (5 mg/kg SC, 2 h): 110 ng/mL and 164 ng/mL and 40.5 ng/mL and 87.3 ng/mL and 102 ng/mL
- blood concentration, individual rat (5 mg/kg SC, 4 h): 108 ng/mL and 118 ng/mL and 158 ng/mL and 74.2 ng/mL and 59.6 ng/mL
- blood concentration, individual rat (5 mg/kg SC, 8 h): 152 ng/mL and 148 ng/mL and 114 ng/mL and 108 ng/mL and 43.4 ng/mL
- blood concentration, individual rat (5 mg/kg SC, 24 h): 30.8 ng/mL and 42.6 ng/mL and 41.8 ng/mL and 41.3 ng/mL
- blood concentration, individual rat (5 mg/kg SC, 168 h): 3 ng/mL and 3.99 ng/mL and 3.05 ng/mL and 3.69 ng/mL
- PK, blood concentration, individual rat (1 h): 131 ng/mL
- PK, blood concentration, individual rat (8 h): 262 ng/mL
